log2 fold change data for 28 targets are collected here from the supplement of paper PMC12819154, “High-throughput peptide-centric local stability assay extends protein–ligand identification to membrane proteins, tissues and bacteria” (Nature Structural & Molecular Biology, 2025).

Sequences of proteins named here, by UniProt entry; tags and fusion partners are left off. A change or cut given only in a name is not applied to a line headed by its entry.
UniProt O75600: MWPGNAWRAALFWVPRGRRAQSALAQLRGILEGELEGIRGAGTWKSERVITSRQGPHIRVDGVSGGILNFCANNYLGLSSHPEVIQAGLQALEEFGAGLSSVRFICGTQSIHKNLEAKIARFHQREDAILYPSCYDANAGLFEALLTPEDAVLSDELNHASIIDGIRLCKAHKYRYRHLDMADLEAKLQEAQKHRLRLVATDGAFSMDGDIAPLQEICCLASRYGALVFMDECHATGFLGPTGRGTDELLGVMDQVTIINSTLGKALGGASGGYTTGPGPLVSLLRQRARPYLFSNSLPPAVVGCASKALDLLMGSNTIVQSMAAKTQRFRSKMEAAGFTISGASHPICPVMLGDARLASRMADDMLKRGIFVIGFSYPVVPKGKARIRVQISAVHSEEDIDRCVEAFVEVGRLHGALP
UniProt O94973, whole entry: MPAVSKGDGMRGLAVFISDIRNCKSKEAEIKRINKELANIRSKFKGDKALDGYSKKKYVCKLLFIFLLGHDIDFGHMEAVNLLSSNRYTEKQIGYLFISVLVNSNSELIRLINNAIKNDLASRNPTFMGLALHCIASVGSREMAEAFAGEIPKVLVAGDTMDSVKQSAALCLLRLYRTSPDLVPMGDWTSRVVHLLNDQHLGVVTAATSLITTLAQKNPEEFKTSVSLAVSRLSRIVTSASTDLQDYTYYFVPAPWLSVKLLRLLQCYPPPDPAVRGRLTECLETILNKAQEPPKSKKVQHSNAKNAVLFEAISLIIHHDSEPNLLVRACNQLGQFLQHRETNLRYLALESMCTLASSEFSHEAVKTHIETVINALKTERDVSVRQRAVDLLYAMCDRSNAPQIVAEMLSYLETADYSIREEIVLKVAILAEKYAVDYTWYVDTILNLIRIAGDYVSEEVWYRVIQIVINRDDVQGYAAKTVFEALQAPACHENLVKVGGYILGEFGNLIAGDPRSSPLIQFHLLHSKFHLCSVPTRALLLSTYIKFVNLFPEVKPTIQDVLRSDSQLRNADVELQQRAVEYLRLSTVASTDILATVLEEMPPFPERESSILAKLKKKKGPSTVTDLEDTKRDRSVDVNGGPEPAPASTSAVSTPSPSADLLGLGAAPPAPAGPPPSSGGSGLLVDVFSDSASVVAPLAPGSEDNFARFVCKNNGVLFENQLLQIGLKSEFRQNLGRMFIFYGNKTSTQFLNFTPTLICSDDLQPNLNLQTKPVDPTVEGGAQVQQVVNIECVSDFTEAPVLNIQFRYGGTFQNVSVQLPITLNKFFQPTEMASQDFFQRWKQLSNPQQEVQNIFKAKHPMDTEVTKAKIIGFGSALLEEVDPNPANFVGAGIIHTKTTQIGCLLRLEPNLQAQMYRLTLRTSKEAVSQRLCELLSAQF
UniProt P00505: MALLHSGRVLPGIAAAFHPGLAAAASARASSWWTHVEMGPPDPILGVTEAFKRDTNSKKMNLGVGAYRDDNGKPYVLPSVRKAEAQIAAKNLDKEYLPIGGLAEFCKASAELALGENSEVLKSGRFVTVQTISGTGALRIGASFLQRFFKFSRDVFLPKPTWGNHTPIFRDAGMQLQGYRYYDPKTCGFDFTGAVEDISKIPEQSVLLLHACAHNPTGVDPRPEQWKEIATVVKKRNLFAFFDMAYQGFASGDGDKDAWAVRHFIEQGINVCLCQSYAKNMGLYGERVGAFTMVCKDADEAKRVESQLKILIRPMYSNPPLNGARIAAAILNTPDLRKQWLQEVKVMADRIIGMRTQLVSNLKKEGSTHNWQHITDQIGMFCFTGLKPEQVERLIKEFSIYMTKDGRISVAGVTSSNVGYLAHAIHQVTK
UniProt O95926: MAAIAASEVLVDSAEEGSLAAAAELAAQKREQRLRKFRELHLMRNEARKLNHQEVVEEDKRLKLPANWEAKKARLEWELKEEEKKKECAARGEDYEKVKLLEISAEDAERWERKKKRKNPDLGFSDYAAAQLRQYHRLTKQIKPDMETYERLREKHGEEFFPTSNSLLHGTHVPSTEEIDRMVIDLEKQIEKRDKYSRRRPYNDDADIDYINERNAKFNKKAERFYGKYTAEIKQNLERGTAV
UniProt O95159: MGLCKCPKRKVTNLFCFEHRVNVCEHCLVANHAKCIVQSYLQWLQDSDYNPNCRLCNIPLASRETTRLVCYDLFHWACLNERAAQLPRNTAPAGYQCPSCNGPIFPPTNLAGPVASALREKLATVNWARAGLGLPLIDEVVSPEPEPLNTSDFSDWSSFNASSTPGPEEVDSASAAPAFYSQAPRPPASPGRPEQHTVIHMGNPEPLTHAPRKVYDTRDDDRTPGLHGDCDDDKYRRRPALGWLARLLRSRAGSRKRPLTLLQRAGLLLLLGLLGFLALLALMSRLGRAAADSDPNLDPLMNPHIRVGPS
UniProt O75569: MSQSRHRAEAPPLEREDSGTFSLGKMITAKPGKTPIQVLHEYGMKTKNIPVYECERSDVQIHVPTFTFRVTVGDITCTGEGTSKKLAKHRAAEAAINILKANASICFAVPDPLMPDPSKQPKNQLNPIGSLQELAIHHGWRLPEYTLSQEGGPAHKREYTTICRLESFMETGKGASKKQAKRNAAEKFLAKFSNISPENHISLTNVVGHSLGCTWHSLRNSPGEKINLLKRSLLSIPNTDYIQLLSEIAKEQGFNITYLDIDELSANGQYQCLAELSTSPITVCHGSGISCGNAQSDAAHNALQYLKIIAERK
UniProt O75787, whole entry: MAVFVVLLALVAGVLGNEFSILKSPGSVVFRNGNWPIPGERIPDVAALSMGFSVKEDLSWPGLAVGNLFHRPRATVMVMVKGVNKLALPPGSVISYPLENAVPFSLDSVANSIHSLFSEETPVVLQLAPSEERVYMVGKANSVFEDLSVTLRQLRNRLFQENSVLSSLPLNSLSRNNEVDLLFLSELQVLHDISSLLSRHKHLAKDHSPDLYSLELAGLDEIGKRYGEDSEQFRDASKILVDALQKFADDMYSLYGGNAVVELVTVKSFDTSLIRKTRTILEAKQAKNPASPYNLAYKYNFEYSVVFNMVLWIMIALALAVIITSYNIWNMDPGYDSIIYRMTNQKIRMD
UniProt O95985: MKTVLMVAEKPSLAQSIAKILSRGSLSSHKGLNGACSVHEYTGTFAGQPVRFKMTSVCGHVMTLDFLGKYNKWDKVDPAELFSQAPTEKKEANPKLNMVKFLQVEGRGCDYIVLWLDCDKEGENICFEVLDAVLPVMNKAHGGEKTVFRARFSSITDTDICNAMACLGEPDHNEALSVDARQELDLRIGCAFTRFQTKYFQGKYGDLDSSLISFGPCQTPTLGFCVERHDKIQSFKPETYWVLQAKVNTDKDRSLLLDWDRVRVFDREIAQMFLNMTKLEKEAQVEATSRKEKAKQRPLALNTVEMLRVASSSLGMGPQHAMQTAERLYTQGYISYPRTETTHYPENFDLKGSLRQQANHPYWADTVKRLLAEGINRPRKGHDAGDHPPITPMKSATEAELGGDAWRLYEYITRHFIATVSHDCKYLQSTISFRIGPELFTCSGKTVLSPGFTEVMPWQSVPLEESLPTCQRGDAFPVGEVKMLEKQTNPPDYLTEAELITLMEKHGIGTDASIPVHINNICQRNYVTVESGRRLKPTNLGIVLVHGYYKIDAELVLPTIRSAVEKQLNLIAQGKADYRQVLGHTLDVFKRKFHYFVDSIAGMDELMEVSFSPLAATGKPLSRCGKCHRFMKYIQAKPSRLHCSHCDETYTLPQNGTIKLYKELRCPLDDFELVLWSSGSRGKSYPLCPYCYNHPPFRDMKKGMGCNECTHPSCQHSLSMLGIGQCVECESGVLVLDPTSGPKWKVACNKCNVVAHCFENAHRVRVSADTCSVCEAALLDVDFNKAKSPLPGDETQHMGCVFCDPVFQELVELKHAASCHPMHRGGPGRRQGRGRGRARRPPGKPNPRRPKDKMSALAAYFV
UniProt O94804: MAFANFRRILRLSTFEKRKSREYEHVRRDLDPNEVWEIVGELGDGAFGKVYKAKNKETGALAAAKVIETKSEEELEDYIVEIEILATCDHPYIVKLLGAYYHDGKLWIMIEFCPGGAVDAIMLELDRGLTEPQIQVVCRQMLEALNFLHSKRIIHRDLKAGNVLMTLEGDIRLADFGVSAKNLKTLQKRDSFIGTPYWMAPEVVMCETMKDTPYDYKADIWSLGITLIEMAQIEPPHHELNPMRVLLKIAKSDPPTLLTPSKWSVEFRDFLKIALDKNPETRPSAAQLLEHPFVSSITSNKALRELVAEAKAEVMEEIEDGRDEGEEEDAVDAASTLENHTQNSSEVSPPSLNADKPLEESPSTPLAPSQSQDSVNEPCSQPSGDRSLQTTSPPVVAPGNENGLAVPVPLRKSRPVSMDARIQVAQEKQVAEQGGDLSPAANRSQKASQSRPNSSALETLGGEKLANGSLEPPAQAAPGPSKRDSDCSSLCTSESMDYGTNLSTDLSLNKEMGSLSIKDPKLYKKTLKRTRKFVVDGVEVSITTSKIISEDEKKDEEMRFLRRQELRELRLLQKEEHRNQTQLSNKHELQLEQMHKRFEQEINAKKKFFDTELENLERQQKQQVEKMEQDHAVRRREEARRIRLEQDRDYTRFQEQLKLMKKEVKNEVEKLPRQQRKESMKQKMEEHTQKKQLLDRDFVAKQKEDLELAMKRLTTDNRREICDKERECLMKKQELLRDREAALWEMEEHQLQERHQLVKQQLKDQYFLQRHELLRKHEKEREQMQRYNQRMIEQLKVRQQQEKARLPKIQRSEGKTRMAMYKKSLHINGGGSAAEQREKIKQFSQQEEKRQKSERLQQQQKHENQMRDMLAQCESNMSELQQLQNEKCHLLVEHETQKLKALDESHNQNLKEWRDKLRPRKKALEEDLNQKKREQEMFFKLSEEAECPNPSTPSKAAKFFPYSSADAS
UniProt O75427: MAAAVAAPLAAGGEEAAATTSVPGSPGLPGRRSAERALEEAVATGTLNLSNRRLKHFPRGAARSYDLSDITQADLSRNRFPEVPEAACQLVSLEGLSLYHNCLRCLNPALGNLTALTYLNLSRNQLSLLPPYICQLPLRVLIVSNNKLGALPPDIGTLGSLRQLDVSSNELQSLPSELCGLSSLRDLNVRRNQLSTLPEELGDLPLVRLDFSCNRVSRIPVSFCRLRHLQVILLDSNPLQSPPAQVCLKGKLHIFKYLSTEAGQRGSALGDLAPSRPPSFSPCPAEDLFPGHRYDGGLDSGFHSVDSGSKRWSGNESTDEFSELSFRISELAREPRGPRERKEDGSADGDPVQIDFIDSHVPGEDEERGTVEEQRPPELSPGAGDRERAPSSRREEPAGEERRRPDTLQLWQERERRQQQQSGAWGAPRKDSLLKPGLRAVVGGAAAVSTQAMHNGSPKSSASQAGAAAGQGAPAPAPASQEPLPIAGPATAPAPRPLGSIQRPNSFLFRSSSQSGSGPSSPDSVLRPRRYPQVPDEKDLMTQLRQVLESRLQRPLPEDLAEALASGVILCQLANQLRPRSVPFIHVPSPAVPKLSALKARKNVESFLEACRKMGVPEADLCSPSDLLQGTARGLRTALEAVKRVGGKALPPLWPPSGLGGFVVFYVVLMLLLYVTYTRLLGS
UniProt O95292, whole entry: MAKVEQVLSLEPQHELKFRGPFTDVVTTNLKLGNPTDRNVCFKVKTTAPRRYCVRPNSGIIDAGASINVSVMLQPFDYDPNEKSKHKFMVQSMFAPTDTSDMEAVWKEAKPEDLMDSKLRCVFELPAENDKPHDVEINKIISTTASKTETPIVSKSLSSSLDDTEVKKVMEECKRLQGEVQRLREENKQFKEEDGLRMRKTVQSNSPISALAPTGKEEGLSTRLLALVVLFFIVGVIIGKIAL
UniProt P00738: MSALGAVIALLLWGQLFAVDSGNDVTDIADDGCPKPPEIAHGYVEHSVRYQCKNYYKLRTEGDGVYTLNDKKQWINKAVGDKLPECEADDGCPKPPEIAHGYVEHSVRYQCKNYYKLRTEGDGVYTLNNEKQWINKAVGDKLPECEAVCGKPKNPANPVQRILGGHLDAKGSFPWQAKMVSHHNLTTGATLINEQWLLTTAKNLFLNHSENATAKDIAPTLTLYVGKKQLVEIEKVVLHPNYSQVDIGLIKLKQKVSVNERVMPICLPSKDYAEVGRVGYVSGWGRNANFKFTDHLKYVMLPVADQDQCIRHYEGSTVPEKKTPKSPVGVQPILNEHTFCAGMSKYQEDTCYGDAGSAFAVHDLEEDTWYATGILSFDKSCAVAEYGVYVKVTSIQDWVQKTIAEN
UniProt P00492: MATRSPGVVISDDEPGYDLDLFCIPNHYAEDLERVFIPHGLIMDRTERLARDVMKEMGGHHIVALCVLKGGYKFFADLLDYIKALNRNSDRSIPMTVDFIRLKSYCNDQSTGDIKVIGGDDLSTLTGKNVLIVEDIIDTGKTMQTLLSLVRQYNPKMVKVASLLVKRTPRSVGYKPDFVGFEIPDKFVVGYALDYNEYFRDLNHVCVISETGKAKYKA

The other results are listed elsewhere or left out. Most values lie at the level of the controls, where differences are scatter.

Compound in this experiment: Cc1nc(Nc2ncc(C(=O)Nc3c(C)cccc3Cl)s2)cc(N2CCN(CCO)CC2)n1 [dasatinib]
In words: log2 fold change of tryptic peptide abundance, ligand vs vehicle (limited proteolysis) (log2 ratio); higher = more trypsin-susceptible (destabilized). To be noted: ligand concentration: 5 uM; sample: K562 cleared lysate.

For “GCAT (peptide sequence: VQISAVHSEEDIDR, peptide start residue: 390) (UniProt O75600)”, the log2 fold change was found to be 0.113. Regarding “ZWINT (peptide sequence: EAFEQLQAKK, peptide start residue: 133) (UniProt O95229)”, the log2 fold change is -0.668.

With “LETM1 (peptide sequence: VNIDDLVK, peptide start residue: 683) (UniProt O95202)”, the log2 fold change is -0.292. For “AP2A2 (peptide sequence: SSPLIQFHLLHSK, peptide start residue: 516) (UniProt O94973)”, the log2 fold change was -0.286. As for “GOT2 (peptide sequence: VGAFTMVCKDADEAK, peptide start residue: 288) (UniProt P00505)”, the log2 fold change is 0.82. Turning to “ASMTL (peptide sequence: VDASACGMER, peptide start residue: 328) (UniProt O95671)”, the log2 fold change is -0.378. In the case of “SYF2 (peptide sequence: GEDYEKVK, peptide start residue: 92) (UniProt O95926)”, the log2 fold change is -0.172. “UniProt O94763 (peptide sequence: NSTGSGHSAQELPTIR, peptide start residue: 371)”: the log2 fold change was -0.28. Take “CCNDBP1 (peptide sequence: MLVAENGKK, peptide start residue: 260) (UniProt O95273)”: the log2 fold change is -0.131. As for “ZFPL1 (peptide sequence: DDDRTPGLHGDCDDDKYR, peptide start residue: 219) (UniProt O95159)”, the log2 fold change is 0.0335. For “GLS (peptide sequence: KCVQSNIVLLTQAFR, peptide start residue: 202) (UniProt O94925)”, the log2 fold change is 0.277. For “PRKRA (peptide sequence: HRAEAPPLEREDSGTFSLGK, peptide start residue: 6) (UniProt O75569)”, the log2 fold change is -0.157.

On to “EML2 (peptide sequence: LKLEWVYGYR, peptide start residue: 55) (UniProt O95834)”, for which the log2 fold change is 0.793. In the case of “EIF3G (peptide sequence: DTLGPMQK, peptide start residue: 173) (UniProt O75821)”, the log2 fold change is 0.368. Consider “ATP6AP2 (peptide sequence: ATVMVMVK, peptide start residue: 74) (UniProt O75787)”, for which the log2 fold change is -0.4. In the case of “TRUB2 (peptide sequence: AATPQVAAELEK, peptide start residue: 285) (UniProt O95900)”, the log2 fold change was -0.123. In the case of “UniProt O94826 (peptide sequence: SDEDKDKEGEALEVK, peptide start residue: 279)”, the log2 fold change is 0.634. For the target “TOP3B (peptide sequence: TVLMVAEKPSLAQSIAK, peptide start residue: 3) (UniProt O95985)”, the log2 fold change was -0.244. As to “UBXN7 (peptide sequence: AAHGGSAASSALK, peptide start residue: 2) (UniProt O94888)”, the log2 fold change was determined as 0.152. Take “ATG7 (peptide sequence: LAESSVDLNLK, peptide start residue: 328) (UniProt O95352)”: the log2 fold change is 0.165. In the case of “UniProt O95382 (peptide sequence: NHVEELLR, peptide start residue: 1034)”, the log2 fold change was found to be 0.22. Turning to “NFAT5 (peptide sequence: APHYVLSQLTTDNKGNSK, peptide start residue: 232) (UniProt O94916)”, the log2 fold change was 0.303. The figure for “UniProt O94804 (peptide sequence: KSLHINGGGSAAEQR, peptide start residue: 823)” is -1.08; for “LRCH4 (peptide sequence: RRPDTLQLWQER, peptide start residue: 403) (UniProt O75427)” it is -0.124.

Take “VAPB (peptide sequence: VMEECKR, peptide start residue: 169) (UniProt O95292)”: the log2 fold change was found to be 0.568. With “HP (peptide sequence: LPECEAVCGKPK, peptide start residue: 142) (UniProt P00738)”, the log2 fold change was 0.439. In the case of “HPRT1 (peptide sequence: DLNHVCVISETGKAK, peptide start residue: 201) (UniProt P00492)”, the log2 fold change turned out to be 0.631. The value for “CIAO1 (peptide sequence: HVVWHPSQELLASASYDDTVK, peptide start residue: 155) (UniProt O76071)” was 0.172.
